According to publication PMC12348835, “Design, Docking Analysis, and Structure–Activity Relationship of Ferrocene-Modified Tyrosine Kinase Inhibitors: Insights into BCR-ABL Interactions” (Molecules, 2025):

Columns and labels:
Format in all cases: cell-based
K-562 = assay: MTT cell viability assay, K-562; conditions: Homo sapiens, K562, 72 h, ± standard deviation
Description: (§1) Cell viability was determined using the MTT colorimetric assay. […] Statistical significance was determined at p ≤ 0.05.

BV-173 = assay: MTT cell viability assay, BV-173; conditions: Homo sapiens, 72 h, ± standard deviation
Description: as §1

AR-230 = assay: MTT cell viability assay, AR-230; conditions: Homo sapiens, 72 h, ± standard deviation
Description: as §1

LAMA-84 = assay: MTT cell viability assay, LAMA-84; conditions: Homo sapiens, 72 h, ± standard deviation
Description: as §1

- IC50 (K-562): 45.5 ± 5 µM
Structure (SMILES): Cc1ccc(NC(=O)c2ccc(CN3CCN(C)CC3)cc2)cc1Nc1nccc(-c2cccnc2)n1 [imatinib, reference compound]
- IC50 (BV-173): 22.8 ± 4.8 µM
- IC50 (AR-230): 4.7 ± 1 µM
- IC50 (LAMA-84): 0.5 ± 0.05 µM
